Consider one molecule from PMC4585976.

For this test, the target named is T1, FLAG-haemagglutinin (HA) epitope-tagged ARIP4 (ARIP4-FH) (human) (UniProt Q9Y4B4).
T1 sequence: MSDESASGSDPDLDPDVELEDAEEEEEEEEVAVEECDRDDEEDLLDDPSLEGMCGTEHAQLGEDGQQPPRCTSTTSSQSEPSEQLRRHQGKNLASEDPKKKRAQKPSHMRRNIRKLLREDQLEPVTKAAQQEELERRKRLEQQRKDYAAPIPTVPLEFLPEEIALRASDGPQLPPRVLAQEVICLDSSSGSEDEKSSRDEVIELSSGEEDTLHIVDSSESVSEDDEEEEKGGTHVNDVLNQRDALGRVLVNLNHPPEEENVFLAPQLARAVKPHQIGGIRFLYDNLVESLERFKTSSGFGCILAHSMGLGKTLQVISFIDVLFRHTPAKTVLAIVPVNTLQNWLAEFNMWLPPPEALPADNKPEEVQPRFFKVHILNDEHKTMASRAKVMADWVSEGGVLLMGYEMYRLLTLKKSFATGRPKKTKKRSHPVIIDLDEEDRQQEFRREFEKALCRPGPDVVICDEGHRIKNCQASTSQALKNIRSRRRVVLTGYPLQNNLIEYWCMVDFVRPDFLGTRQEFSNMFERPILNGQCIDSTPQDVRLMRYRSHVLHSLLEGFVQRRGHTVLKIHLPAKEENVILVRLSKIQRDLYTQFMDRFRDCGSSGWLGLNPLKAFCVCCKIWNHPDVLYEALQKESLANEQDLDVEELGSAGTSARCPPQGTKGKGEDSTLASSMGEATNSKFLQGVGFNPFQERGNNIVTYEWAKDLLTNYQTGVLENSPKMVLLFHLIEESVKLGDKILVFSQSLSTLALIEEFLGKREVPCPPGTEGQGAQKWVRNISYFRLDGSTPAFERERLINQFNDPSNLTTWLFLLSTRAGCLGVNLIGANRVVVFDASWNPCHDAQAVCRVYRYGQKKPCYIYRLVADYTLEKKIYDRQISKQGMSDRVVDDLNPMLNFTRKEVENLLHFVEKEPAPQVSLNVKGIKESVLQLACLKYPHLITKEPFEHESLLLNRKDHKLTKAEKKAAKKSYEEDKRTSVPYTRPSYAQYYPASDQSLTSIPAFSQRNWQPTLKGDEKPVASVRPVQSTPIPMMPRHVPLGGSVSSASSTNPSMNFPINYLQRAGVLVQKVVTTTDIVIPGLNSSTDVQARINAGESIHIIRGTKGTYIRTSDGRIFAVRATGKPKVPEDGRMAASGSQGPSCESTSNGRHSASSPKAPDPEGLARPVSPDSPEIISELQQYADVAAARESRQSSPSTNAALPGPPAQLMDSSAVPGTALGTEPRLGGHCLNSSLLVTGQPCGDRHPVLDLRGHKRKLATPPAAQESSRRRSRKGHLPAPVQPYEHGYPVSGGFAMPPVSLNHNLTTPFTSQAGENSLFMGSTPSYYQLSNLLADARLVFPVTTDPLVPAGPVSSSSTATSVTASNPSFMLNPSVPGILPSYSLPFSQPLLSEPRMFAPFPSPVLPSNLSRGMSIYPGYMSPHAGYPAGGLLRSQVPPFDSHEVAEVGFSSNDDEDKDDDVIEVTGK
The test is described as follows: affinity purification with mass spectrometry; nuclear extracts of HeLa cells stably expressing ARIP4-FH; anti-FLAG agarose, elution with 3x FLAG peptide, then anti-HA (12CA5) agarose; silver staining, bands identified by MALDI-TOF MS; mock purification from cells without exogenous protein as ….

These are yes or no findings as the source states them, for the method shown. Binding seen in cells or lysates may run through a third protein. These calls come from enrichment with a bait or labelling near it, and not all partners need be listed. Where a sequence is shown, tags or fusion partners need not be part of it.

B1: HAN11 (also known as WDR68) (protein, UniProt P61962 1-342)
chain: MSLHGKRKEIYKYEAPWTVYAMNWSVRPDKRFRLALGSFVEEYNNKVQLVGLDEESSEFICRNTFDHPYPTTKLMWIPDTKGVYPDLLATSGDYLRVWRVGETETRLECLLNNNKNSDFCAPLTSFDWNEVDPYLLGTSSIDTTCTIWGLETGQVLGRVNLVSGHVKTQLIAHDKEVYDIAFSRAGGGRDMFASVGADGSVRMFDLRHLEHSTIIYEDPQHHPLLRLCWNKQDPNYLATMAMDGMEVVILDVRVPCTPVARLNNHRACVNGIAWAPHSSCHICTAADDHQALIWDIQQMPRAIEDPILAYTAEGEINNVQWASTQPDWIAICYNNCLEILRV
Regarding B1, the binding result was “binds”.
